Some entries share one result that the patent states for a list of compounds.
Molecular target: T1, human CCR10 (Homo sapiens, UniProt P46092)
T1 construct: expressed in transfected cells; host or cells: KJMGER8 cells (Namalwa cell-derived cell line); expression induced with 10 nmol/L beta-estradiol for 24 hr
T1 sequence (P46092 1-362): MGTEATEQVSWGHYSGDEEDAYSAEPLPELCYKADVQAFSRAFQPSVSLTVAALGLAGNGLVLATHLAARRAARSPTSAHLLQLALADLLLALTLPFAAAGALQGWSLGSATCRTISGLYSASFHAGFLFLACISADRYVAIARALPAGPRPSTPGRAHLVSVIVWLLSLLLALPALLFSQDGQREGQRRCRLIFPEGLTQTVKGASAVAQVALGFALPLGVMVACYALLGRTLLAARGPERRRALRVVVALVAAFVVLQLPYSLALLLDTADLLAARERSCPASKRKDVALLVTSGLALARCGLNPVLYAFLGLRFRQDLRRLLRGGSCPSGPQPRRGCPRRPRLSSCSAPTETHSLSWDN
Test: Calcium assay of human CCR10 (CCR10 antagonistic effect, CTACK-induced increase of intracellular calcium ion concentration in hCCR10G16 cells)
Type: cell-based
Settings: human CCR10-expressing hCCR10G16 cells, 300 nmol/L human recombinant CTACK, Fluo-3, FDSS; read-out: concentration at which the increase in the calcium ion concentration is inhibited by not less than 50%

SMILES	IC50 [nM]
COc1ccccc1Nc1c(C(=O)N2CCC(c3ccc(F)cc3)CC2)cn(C)c(=O)c1Cl [Compound 47, 3-chloro-5-[4-(4-fluorophenyl)piperidine-1-carbonyl]-4-(2-methoxyphenylamino)-1-methylpyridin-2(1H)-one]	≤ 1000
COC1(c2ccc(F)cc2)CCN(C(=O)c2cn(OCCO)c(=O)c(Cl)c2Nc2cc(Cl)ccc2C)CC1 [Compound 235, 3-chloro-4-(5-chloro-2-methylphenylamino)-5-[4-(4-fluorophenyl)-4-methoxypiperidine-1-carbonyl]-1-(2-hydroxyethoxy)pyridin-2(1H)-one]	≤ 1000
Cn1cc(C(=O)N2CCC(c3ccc(F)cc3)CC2)c(Nc2ccc3c(c2)OCO3)c(Cl)c1=O [Compound 179, 4-(benzo[d][1,3]dioxol-5-ylamino)-3-chloro-5-[4-(4-fluorophenyl)piperidine-1-carbonyl]-1-methylpyridin-2(1H)-one]	≤ 1000
COc1cccc(Nc2c(C(=O)N3CCC(c4ccc(F)cc4)CC3)cn(C)c(=O)c2Cl)c1 [Compound 46, 3-chloro-5-[4-(4-fluorophenyl)piperidine-1-carbonyl]-4-(3-methoxyphenylamino)-1-methylpyridin-2(1H)-one]	≤ 1000
Cc1ccc(Nc2c(C(=O)N3CCC(c4ccc(F)cc4)CC3)cn(C)c(=O)c2Cl)cc1C [Compound 87, 3-chloro-4-(3,4-dimethylphenylamino)-5-[4-(4-fluorophenyl)piperidine-1-carbonyl]-1-methylpyridin-2(1H)-one]	≤ 1000
COc1ccc(OC)c(Nc2c(C(=O)N3CCC(c4ccc(F)cc4)CC3)cn(C)c(=O)c2Cl)c1 [Compound 51, 3-chloro-4-(2,5-dimethoxyphenylamino)-5-[4-(4-fluorophenyl)piperidine-1-carbonyl]-1-methylpyridin-2(1H)-one]	≤ 1000
COc1cc(OC)c(Nc2c(C(=O)N3CCC(c4ccc(F)cc4)CC3)cn(C)c(=O)c2Cl)cc1Cl [Compound 61, 3-chloro-4-(5-chloro-2,4-dimethoxyphenylamino)-5-[4-(4-fluorophenyl)piperidine-1-carbonyl]-1-methylpyridin-2(1H)-one]	≤ 1000
O=C(c1cn(C2CC2)c(=O)c(Cl)c1Nc1cc(F)c(F)cc1F)N1CCC(c2ccc(F)cc2)CC1 [Compound 70, 3-chloro-1-cyclopropyl-5-[4-(4-fluorophenyl)piperidine-1-carbonyl]-4-(2,4,5-trifluorophenylamino)pyridin-2(1H)-one]	≤ 1000
Cc1ccc(Cl)cc1Nc1c(C(=O)N2CCC(c3ccc(F)cc3)CC2)cn(Cc2cccnc2)c(=O)c1Cl [Compound 153, 3-chloro-4-(5-chloro-2-methylphenylamino)-5-[4-(4-fluorophenyl)piperidine-1-carbonyl]-1-(pyridin-3-ylmethyl)pyridin-2(1H)-one]	≤ 1000
N#CNC(=O)Cn1cc(C(=O)N2CCC(c3ccc(F)cc3)CC2)c(NCc2ccccc2)cc1=O [Compound 35, 2-{4-(benzylamino)-5-[4-(4-fluorophenyl)piperidine-1-carbonyl]-2-oxopyridin-1(2H)-yl}-N-cyanoacetamide]	≤ 1000
Cc1ccc(Cl)cc1Nc1c(C(=O)N2CCN(c3ccc(F)cc3)C(=O)C2)cn(OCCO)c(=O)c1Cl [Compound 234, 4-[5-chloro-4-(5-chloro-2-methylphenylamino)-1-(2-hydroxyethoxy)-6-oxo-1,6-dihydropyridine-3-carbonyl]-1-(4-fluorophenyl)piperazin-2-one]	≤ 1000
O=C(c1cn(Cc2ccccn2)c(=O)c(Cl)c1Nc1ccc(F)cc1F)N1CCC(c2ccc(F)cc2)CC1 [Compound 172, 3-chloro-4-(2,4-difluorophenylamino)-5-[4-(4-fluorophenyl)piperidine-1-carbonyl]-1-(pyridin-2-ylmethyl)pyridin-2(1H)-one]	≤ 1000
C=CCn1cc(C(=O)N2CCC(c3ccc(F)cc3)CC2)c(Nc2cc(Cl)ccc2C)c(Cl)c1=O [Compound 166, 1-allyl-3-chloro-4-(5-chloro-2-methylphenylamino)-5-[4-(4-fluorophenyl)piperidine-1-carbonyl]pyridin-2(1H)-one]	≤ 1000
Cn1cc(C(=O)N2CCC(c3ccc(F)cc3)CC2)c(Nc2ccc(OC(F)(F)F)cc2)c(Cl)c1=O [Compound 49, 3-chloro-5-[4-(4-fluorophenyl)piperidine-1-carbonyl]-1-methyl-4-[4-(trifluoromethoxy)phenylamino]pyridin-2(1H)-one]	≤ 1000
Cn1cc(C(=O)N2CCC(c3ccc(F)cc3)CC2)c(Nc2ccc(OC(F)(F)F)cc2C#N)c(Cl)c1=O [Compound 156, 2-{3-chloro-5-[4-(4-fluorophenyl)piperidine-1-carbonyl]-1-methyl-2-oxo-1,2-dihydropyridin-4-ylamino}-5-(trifluoromethoxy)benzonitrile]	≤ 1000
COCCn1cc(C(=O)N2CCC(c3ccc(F)cc3)CC2)c(Nc2ccc(OC)cc2C)c(Cl)c1=O [Compound 143, 3-chloro-5-[4-(4-fluorophenyl)piperidine-1-carbonyl]-4-(4-methoxy-2-methylphenylamino)-1-(2-methoxyethyl)pyridin-2(1H)-one]	≤ 1000
Cc1nnc(Cn2cc(C(=O)N3CCC(c4ccc(F)cc4)CC3)c(Nc3cc(Cl)ccc3C)c(Cl)c2=O)o1 [Compound 187, 3-chloro-4-(5-chloro-2-methylphenylamino)-5-[4-(4-fluorophenyl)piperidine-1-carbonyl]-1-[(5-methyl-1,3,4-oxadiazol-2-yl)methyl]pyridin-2(1H)-one]	≤ 1000
CC(C)Oc1ccc(Nc2c(C(=O)N3CCC(c4ccc(F)cc4)CC3)cn(C)c(=O)c2Cl)cc1 [Compound 78, 3-chloro-5-[4-(4-fluorophenyl)piperidine-1-carbonyl]-4-(4-isopropoxyphenylamino)-1-methylpyridin-2(1H)-one]	≤ 1000
Cn1cc(C(=O)N2CCC(c3ccc(F)cc3)CC2)c(Nc2ccccc2C#N)c(Cl)c1=O [Compound 99, 2-{3-chloro-5-[4-(4-fluorophenyl)piperidine-1-carbonyl]-1-methyl-2-oxo-1,2-dihydropyridin-4-ylamino}benzonitrile]	≤ 1000
CSc1ccc(Nc2c(C(=O)N3CCC(c4ccc(F)cc4)CC3)cn(C)c(=O)c2Cl)cc1C(F)(F)F [Compound 113, 3-chloro-5-[4-(4-fluorophenyl)piperidine-1-carbonyl]-1-methyl-4-[4-(methylthio)-3-(trifluoromethyl)phenylamino]pyridin-2(1H)-one]	≤ 1000
C=Cn1cc(C(=O)N2CCC(c3ccc(F)cc3)CC2)c(Nc2ccc(C)nc2C)c(Cl)c1=O [Compound 210, 3-chloro-4-(2,6-dimethylpyridin-3-ylamino)-5-[4-(4-fluorophenyl)piperidine-1-carbonyl]-1-vinylpyridin-2(1H)-one]	≤ 1000
Cn1cc(C(=O)N2CCC(c3ccc(F)cc3)CC2)c(Nc2ccc(C#N)cc2Cl)c(Cl)c1=O [Compound 64, 3-chloro-4-{3-chloro-5-[4-(4-fluorophenyl)piperidine-1-carbonyl]-1-methyl-2-oxo-1,2-dihydropyridin-4-ylamino}benzonitrile]	≤ 1000
COc1cc(Nc2c(C(=O)N3CCC(c4ccc(F)cc4)CC3)cn(CC3CC3)c(=O)c2Cl)ccc1Cl [Compound 84, 3-chloro-4-(4-chloro-3-methoxyphenylamino)-1-(cyclopropylmethyl)-5-[4-(4-fluorophenyl)piperidine-1-carbonyl]pyridin-2(1H)-one]	≤ 1000
CSc1ccc(Nc2c(C(=O)N3CCC(c4ccc(F)cc4)CC3)cn(C)c(=O)c2Cl)cc1 [Compound 91, 3-chloro-5-[4-(4-fluorophenyl)piperidine-1-carbonyl]-1-methyl-4-[4-(methylthio)phenylamino]pyridin-2(1H)-one]	≤ 1000
